The text below walks through data of publication PMC7862700.

Amino acid sequences for entries named in this document (tags omitted). A change or cut given only in a name is not applied to a line headed by its entry.
UniProt O43186: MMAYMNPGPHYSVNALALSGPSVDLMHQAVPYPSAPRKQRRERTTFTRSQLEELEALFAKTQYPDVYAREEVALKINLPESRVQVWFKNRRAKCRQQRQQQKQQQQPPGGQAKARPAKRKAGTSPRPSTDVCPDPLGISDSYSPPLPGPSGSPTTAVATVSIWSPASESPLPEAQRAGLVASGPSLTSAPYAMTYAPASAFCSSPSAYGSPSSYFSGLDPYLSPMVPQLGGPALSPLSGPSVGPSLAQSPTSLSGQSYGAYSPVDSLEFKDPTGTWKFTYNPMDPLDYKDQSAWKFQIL

The list shows a part of the results, in another mix than the full data. At the low end of the ranking the order means little.

The first experiment concerns the target T1, FEV (UniProt Q99581).
T1 sequence: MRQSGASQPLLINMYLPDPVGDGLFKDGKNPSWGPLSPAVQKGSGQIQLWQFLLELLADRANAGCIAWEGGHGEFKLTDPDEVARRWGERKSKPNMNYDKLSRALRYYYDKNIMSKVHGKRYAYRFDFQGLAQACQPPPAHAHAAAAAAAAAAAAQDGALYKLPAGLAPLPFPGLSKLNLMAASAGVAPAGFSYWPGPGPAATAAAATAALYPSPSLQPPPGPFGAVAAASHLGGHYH
Put plainly: DAPPL (digital affinity profiling via proximity ligation, sequencing). Particulars: 10 mM Tris-HCl pH 7.5, 50 mM NaCl, 1 mM DTT, 4% glycerol, room temperature, 30 min; GST-TFs on glutathione beads, 16-mer random dsDNA library, 0.1% …; high values mean tight binding; double strand, one strand shown; scale: fold enrichment (6-mer frequency, TF over GST control).
The sequence AGGAAG showed a binding signal of 1.24. Still for that read-out and setting: the same measure for CCACTC: 1.27; for AGTGAC: 1.11. Same read-out and setting: the same measure for TGCAAG: 0.962; for GTAGTT: 0.945; for TCCTAA: 1.41.

Regarding GCTATC, the binding signal was determined as 1.08. On to ACGGTA, for which the binding signal came out at 0.963. Same read-out and setting: the same measure for GACACT: 0.975; for AGTGTC: 0.958. Still for that read-out and setting: the result for AATGAA reads 1.11.

GCTACG displayed a binding signal of 1.16. GCGAAT had a binding signal of 0.959. Still for that read-out and setting: the same measure for CCAACC: 1.1; for CTCGTC: 1.31. Same read-out and setting: the result for ACATAG reads 0.998; that for TGTACG, 1.2; that for AAGTGC, 1.32. Consider GTAGCT, for which the binding signal turned out to be 0.988. On the same count and under the same terms, the result for GCACAA reads 1.1; that for CGGTCT, 1.3.

Another experiment has as its target CRX (UniProt O43186). Described as above. The settings on record: 10 mM Tris-HCl pH 7.5, 50 mM NaCl, 1 mM DTT, 4% glycerol, room temperature, 30 min; GST-TFs on glutathione beads, 16-mer random dsDNA library, 0.1% …; high values mean tight binding; double strand, one strand shown; scale: fold enrichment (6-mer frequency, TF over GST control).
Turning to AGGAAG, the binding signal was 0.495. Still for that read-out and setting: the same measure for CCACTC: 0.984; for AGTGAC: 0.745; for TGCAAG: 0.86. The same measure, in the same setting: the same measure for GTAGTT: 0.799; for TCCTAA: 2.09; for GCTATC: 0.949. With ACGGTA, the binding signal worked out at 0.889. Sequence GACACT returned a binding signal of 0.731. In turn, AGTGTC yielded a binding signal of 0.711. Same read-out and setting: the same measure for AATGAA: 1.03; for GCTACG: 0.92; for GCGAAT: 1.08.

On to CCAACC, for which the binding signal turned out to be 0.767. As for CTCGTC, the binding signal is 1.02. Turning to ACATAG, the binding signal was determined as 0.892. Still for that read-out and setting: the same measure for TGTACG: 0.864; for AAGTGC: 0.994; for GTAGCT: 1.02.

Regarding GCACAA, the binding signal was 0.882. On the same count and under the same terms, the same measure for CGGTCT: 0.821.

Another experiment addresses T2, ELF5 (UniProt Q9UKW6-2).
T2 sequence: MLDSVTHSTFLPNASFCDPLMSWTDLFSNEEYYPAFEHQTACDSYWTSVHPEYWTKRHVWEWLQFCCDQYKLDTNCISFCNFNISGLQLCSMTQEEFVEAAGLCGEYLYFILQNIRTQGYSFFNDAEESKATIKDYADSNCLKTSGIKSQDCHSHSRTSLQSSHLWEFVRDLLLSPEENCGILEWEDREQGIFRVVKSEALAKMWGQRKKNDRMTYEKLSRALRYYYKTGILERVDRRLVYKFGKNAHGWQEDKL
The description is as above. The settings on record: 10 mM Tris-HCl pH 7.5, 50 mM NaCl, 1 mM DTT, 4% glycerol, room temperature, 30 min; GST-TFs on glutathione beads, 16-mer random dsDNA library, 0.1% …; high values mean tight binding; double strand, one strand shown; scale: fold enrichment (6-mer frequency, TF over GST control).
On to AAGCAT, for which the binding signal amounted to 1.06.

The sequence CTTAAT displayed a binding signal of 1.25. On the same count and under the same terms, the same measure for GAACTT: 1.96; for ATCCGG: 3.06; for TGAGCT: 0.922. On the same count and under the same terms, the result for TTGACT reads 1.08. TGTTGC: the binding signal stood at 1.3.

Sequence TTATCC registered a binding signal of 1.56. In turn, AATGTA displayed a binding signal of 1.21. Still for that read-out and setting: the same measure for TCACCT: 1.21; for CCCGTA: 1.21; for CTTTGC: 1.29. On to CCTATA, for which the binding signal stood at 1.39. On the same count and under the same terms, the same measure for GAAAAT: 1.17; for TAGTGC: 0.956.

Regarding AAGGTT, the binding signal amounted to 1.1. Same read-out and setting: the result for TAATGG reads 1.32; that for ACTTAG, 0.993.
